Assay results from the supplement of paper PMC8007513.
The list shows a part of the results. Single values are uncertain, as repeats are few or missing.

What follows are molecules tested on Saccharomyces cerevisiae BY4743 (assay: growth (OD600) relative to untreated control; higher = less growth inhibition). Conditions: compound concentration: 133 uM; 20 h.
Protocol: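 NMCCC compounds (133 uM, no IPBC) tested alone against Saccharomyces cerevisiae BY4743 in YPD, 96-well plates, starting OD600 ~0.1. Growth was read as OD600 at 20 h and expressed as % of the untreated control. Single pass.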

SMILES	growth [%]
COc1ccccc1-c1noc(CSc2n[nH]c(C(C)C)n2)n1	100
N#Cc1ccccc1S(=O)(=O)N1CCN(C(=O)COc2ccccc2C(F)(F)F)CC1	95.8
CCOC(=O)c1cc(C)n(-c2ccc(C(=O)N3CCN(C(=O)OCC)CC3)cc2)c1C	94.8
COC(CNC(=O)CN1\N=C(\CC2=CC=NC=C2)C3=CC=CC=C3C1=O)OC	102
Cc1nn(C)c(C)c1CNC(=O)C1C2CCC(O2)C1C(=O)O (stereo not given)	102
CCOC(=O)c1c(S(=O)(=O)NCC(=O)Nc2nc3ccc(Cl)cc3s2)c(C)n(C)c1C	95.1
COc1ccc(CN(C)C(=O)c2cc(Br)ccc2F)c(OC)c1OC	102
COCCN1\C=C(NC(=O)C2=CC3=C(CCC(C3)C(C)(C)C)S2)/C=C\C1=O (stereo not given)	111
CC(C)CNC(=O)N1[C@H](c2cccs2)[C@@H](C)C(=O)[C@@H](C)[C@@H]1c1cccs1	101
CCOC(=O)c1cnc(SCc2nc(-c3ccccc3)oc2C)nc1N	83.4
CCOc1ccccc1NC(=O)c1cnn2cccnc12	97
C=C1c2ccccc2C(=O)N1CC(=O)Nc1ccc(Cl)c(Cl)c1	85.7
COC(=O)c1nn(CC(=O)c2ccc(F)cc2)c2ccccc12	94.8
COC(=O)CNC(=O)c1cc2ccccc2cc1OCc1c(C)noc1C	99.9
Cc1nn(C)c(C)c1NC(=O)CSc1nnc(Nc2ccc(OC(F)(F)F)cc2)s1	86
